Test results taken from PubChem BioAssay AID2718 (Broad Institute, 2010).
Out of some 320,000 compounds screened, about 480 (0.15%) were called active. The inconclusive results got no clear call from the source; some entries with a clear call stand among them for comparison. Cut-off read from the data, not from the text of the source: active = inhibition above about 26% (passing the limit was not always enough); inconclusive = no clear call, values can overlap the other calls.

By UniProt entry, the sequences of proteins in these tests, tags left out. Where a name states a change or a piece, a line headed by the entry shows the natural chain unless it says otherwise.
UniProt O15379: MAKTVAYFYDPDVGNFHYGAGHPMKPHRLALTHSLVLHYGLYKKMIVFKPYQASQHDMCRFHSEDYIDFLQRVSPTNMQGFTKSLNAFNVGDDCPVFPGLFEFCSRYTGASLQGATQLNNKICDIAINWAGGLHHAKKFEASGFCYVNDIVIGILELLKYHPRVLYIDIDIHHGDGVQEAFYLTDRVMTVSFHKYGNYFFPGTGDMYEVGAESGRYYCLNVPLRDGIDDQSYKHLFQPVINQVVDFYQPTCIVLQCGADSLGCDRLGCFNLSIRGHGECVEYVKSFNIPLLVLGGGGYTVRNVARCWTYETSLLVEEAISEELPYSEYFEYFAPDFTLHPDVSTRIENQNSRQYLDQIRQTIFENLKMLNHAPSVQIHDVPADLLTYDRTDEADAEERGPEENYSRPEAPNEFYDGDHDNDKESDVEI

Biological target: Histone deacetylase 3 (Homo sapiens) (UniProt O15379)
Experiment: HDAC3 deacetylase inhibitors, primary screen, biochemical, fluorescence, cell-free homogeneous (AID 2718)
Details: recombinant HDAC3, fluorogenic peptide/trypsin coupled, at 8.3 µM, active compounds read high

| SMILES | inhibition |
| --- | --- |
| Cc1nn(Cc2c(Cl)cccc2Cl)c(C)c1NC(=O)CCCn1nc([N+](=O)[O-])c(Cl)c1C | inconclusive: 34% |
| O=C(NCc1cc(C(F)(F)F)cc(C(F)(F)F)c1)C1CC(c2ccccc2[N+](=O)[O-])=NO1 (stereo not drawn) | inconclusive: 19.9% |
| O=C(NCc1ccccn1)C1CC(c2ccc(Cl)c(Cl)c2)=NO1 (stereo not drawn) | inactive: 6.17% |
| COc1ccc(CNCC(=O)Nc2ccccc2-n2cccc2)cc1 | inconclusive: 16.5% |
| Nc1c(Cl)cc(C2=NCCn3nc4cc(C(F)(F)F)ccc4c32)cc1Cl | inconclusive: 26.1% |
| O=c1oc(-c2ccc([N+](=O)[O-])cc2)nc2ccc(O)cc12 | inconclusive: 12.1% |
| O=C(O)/C(=C\c1ccc(C(F)(F)F)cc1)c1ccc(S(=O)(=O)N2CCCC2)s1 | inconclusive: 12.5% |
| Cc1ccc(OCc2cc(C(=O)NCC3COCCO3)no2)cc1C (stereo not drawn) | inactive: 1.75% |
| CC(C)c1ccc(N(C(=O)c2ccc3c(c2)OCO3)C2C=CS(=O)(=O)C2)cc1 (stereo not drawn) | inconclusive: 20.4% |
| O=C(N/N=C/c1ccc[nH]1)c1ccncc1 | inconclusive: 12.8% |
| Nc1ccc2nc(-c3cccc(-c4nc5ccc(N)cc5[nH]4)n3)[nH]c2c1 | inconclusive: 20.3% |
| Cc1ccc(-c2cn3nc(-c4ccccc4)c(-c4ccccc4)nc3n2)cc1 | inactive: 0.472% |
| CN(c1ccccc1)c1ccc(/C=N/NC(=O)CC#N)cc1 | inactive: -9.15% |
| Cc1cccn2c(=O)c3cc(C(=O)NCCN4CCOCC4)n(C)c3nc12 | inactive: -40.8% |
| COC(=O)[C@@H](NC(=O)O[C@@H]1C(=O)c2cc(Br)ccc2O[C@H]1c1cccc(OC)c1)C(C)C | inconclusive: 28.8% |
| S=c1[nH]ncn1/N=C/c1ccc(N2CCOCC2)cc1 | inconclusive: 18.4% |
| CC(=O)NNC(=S)NC(=O)c1ccc(C)cc1 | inactive: 1.99% |
| Cc1cc(F)ccc1NCc1ccccc1[N+](=O)[O-] | inactive: 7.33% |
| Cc1cccc(NC(=O)CCN2CCCCC2)c1 | inconclusive: 16.7% |
| Cc1ccc(S(=O)(=O)Oc2ccccc2/C=N/N=C(N)N)cc1 | inactive: 11.9% |
| COc1ccc(C=C(C(C)=O)C(C)=O)cc1OC | inactive: 2.29% |
| N#Cc1ccc(CO/N=C/c2ccccc2)cc1 | inconclusive: 20.2% |

| SMILES | inhibition |
| --- | --- |
| COc1cccc(/C=N/NC(=O)c2cccc([N+](=O)[O-])c2)c1OS(=O)(=O)c1ccc(C)cc1 | inconclusive: 14.9% |
| COc1cc2ncnc(NCc3ccccc3C)c2cc1OC | inconclusive: 23.8% |
| O=C(NNS(=O)(=O)c1ccc(F)cc1)c1ccc([N+](=O)[O-])cc1Cl | inconclusive: 11.7% |
| CCCCCCCCN1[C@@H](CC(=O)OCC)c2cc(C(F)(F)F)ccc2S1(=O)=O | inconclusive: 19.8% |
| COc1cccc(-c2nnc(NC(=O)c3cccs3)s2)c1 | inconclusive: 8.58% |
| Cc1cc(NC(=O)c2cc(F)c(F)cc2Cl)no1 | inconclusive: 18.9% |
| CC(=O)N(CC(=O)O)c1ccccc1C(=O)O | inconclusive: 20% |
| Cc1cccc(NC(=O)NNC(=O)c2ccc3ccccc3c2)c1 | inconclusive: 15.5% |
| Cc1c(NC(=O)C2CCN(S(=O)(=O)c3cccs3)CC2)c(=O)n(-c2ccccc2)n1C | inconclusive: 13.5% |
| CC(=O)c1cccc(NC(=O)/C(=C\c2ccco2)NC(=O)c2ccco2)c1 | inconclusive: 24% |
| Cc1cc(/C=N/NC(=O)c2cccc(F)c2)c(C)n1-c1ccccc1 | inactive: 1.45% |
| Cc1ccc(S(=O)(=O)N(C)C)cc1NC(=S)NC(=O)C12CC3CC(CC(C3)C1)C2 | inconclusive: 21.1% |
| COc1ccc(S(=O)(=O)N/N=C(/C)c2ccncc2)c(OC)c1 | inactive: -14.4% |
| COc1ccc(NC(=O)CSc2nn3c(=O)c(C)nnc3s2)cc1 | inactive: -0.139% |
| CC(=O)OCC1O[C@@H](O[C@@H]2C[C@H]3C(C)(C)[C@H](OC(C)=O)CC[C@]3(C)[C@H]3CC[C@]45C[C@]4(CC[C@H]5[C@@H](C)C[C@@H](O)[C@H](O)C(C)(C)O)[C@@]32C)[C@H](O)[C@@H](O)[C@@H]1O (stereo partly drawn) | active: 41.9% |
| COc1cc(/C=C/c2ccc3c(Br)cc(Br)c(O)c3n2)ccc1O | inconclusive: 10.8% |
| CSc1nnc2c(n1)OC=Nc1ccc(Br)cc1-2 | inactive: 5.09% |
| COc1ccc2cc3cc(C(=O)NCCCN4CCOCC4)oc3nc2c1 | inactive: -295% |
| O=C(CN1CCN(Cc2ccccc2)CC1)N1CCCc2ccccc21 | inconclusive: 10.5% |
| O=C(CN1C(=O)CCS(=O)(=O)c2ccccc21)NCCc1ccccc1 | inconclusive: 17% |
| CCn1c(SCC(=O)N2CCOCC2)nc2ccccc21 | inconclusive: 16.2% |

Part of the list above in order of SMILES length, descending:

| SMILES | inhibition |
| --- | --- |
| Cc1ccc(S(=O)(=O)Oc2ccccc2/C=N/N=C(N)N)cc1 | inactive: 11.9% |
| COc1cccc(-c2nnc(NC(=O)c3cccs3)s2)c1 | inconclusive: 8.58% |
| COc1cc2ncnc(NCc3ccccc3C)c2cc1OC | inconclusive: 23.8% |
